# According to the supplement of paper PMC6411743:
# The chains behind the UniProt entries cited, without tags or fusion partners. Where a name states a change or a piece, a line headed by the entry shows the natural chain unless it says otherwise.
# UniProt Q9H7E9: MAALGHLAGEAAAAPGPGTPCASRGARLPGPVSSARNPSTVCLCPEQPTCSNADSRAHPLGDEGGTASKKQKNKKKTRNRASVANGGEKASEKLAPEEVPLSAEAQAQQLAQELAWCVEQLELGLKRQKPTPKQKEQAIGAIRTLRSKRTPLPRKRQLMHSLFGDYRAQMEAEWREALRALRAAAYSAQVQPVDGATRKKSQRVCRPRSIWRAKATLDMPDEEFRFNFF
# UniProt Q9H081: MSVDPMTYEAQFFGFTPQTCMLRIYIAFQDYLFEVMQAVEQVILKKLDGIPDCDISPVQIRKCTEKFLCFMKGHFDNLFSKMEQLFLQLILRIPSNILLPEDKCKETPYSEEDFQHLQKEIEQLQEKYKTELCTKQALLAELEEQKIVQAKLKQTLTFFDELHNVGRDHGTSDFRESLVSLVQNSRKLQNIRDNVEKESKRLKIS
# UniProt Q9HBL8: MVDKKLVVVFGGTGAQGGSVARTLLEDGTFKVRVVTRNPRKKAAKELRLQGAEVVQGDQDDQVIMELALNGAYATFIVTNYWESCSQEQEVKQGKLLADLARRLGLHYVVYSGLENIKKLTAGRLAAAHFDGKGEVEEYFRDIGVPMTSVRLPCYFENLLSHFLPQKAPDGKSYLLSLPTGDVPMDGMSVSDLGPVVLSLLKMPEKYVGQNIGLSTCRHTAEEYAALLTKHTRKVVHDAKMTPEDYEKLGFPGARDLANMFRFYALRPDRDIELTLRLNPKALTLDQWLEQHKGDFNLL
# UniProt Q9HCJ3: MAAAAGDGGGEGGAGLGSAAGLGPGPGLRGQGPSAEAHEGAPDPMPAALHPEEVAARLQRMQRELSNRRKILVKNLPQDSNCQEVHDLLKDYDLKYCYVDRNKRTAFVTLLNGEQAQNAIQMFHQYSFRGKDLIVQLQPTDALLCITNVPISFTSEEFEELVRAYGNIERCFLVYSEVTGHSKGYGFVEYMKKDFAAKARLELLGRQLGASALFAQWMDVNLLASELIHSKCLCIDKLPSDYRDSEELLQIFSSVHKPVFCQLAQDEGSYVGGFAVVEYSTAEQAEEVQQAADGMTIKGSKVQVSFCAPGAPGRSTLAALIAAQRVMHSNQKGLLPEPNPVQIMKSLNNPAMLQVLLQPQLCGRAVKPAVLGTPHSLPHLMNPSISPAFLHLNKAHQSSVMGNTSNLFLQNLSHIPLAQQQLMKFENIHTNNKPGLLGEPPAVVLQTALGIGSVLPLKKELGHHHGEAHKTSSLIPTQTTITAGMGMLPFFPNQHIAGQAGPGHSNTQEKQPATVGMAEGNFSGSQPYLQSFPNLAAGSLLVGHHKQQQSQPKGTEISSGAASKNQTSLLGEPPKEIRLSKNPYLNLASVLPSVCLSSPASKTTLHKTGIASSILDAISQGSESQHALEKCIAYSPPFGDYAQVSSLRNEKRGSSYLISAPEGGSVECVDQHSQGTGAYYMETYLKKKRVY
# UniProt Q9HA38: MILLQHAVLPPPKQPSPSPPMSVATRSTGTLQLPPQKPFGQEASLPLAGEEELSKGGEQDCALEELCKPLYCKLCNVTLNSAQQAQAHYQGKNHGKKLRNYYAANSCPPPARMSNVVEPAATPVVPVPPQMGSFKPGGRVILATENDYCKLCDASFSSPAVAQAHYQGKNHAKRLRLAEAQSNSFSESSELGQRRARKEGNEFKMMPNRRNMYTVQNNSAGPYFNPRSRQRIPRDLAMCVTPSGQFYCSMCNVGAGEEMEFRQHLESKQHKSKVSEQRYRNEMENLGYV
# UniProt Q9H6D7: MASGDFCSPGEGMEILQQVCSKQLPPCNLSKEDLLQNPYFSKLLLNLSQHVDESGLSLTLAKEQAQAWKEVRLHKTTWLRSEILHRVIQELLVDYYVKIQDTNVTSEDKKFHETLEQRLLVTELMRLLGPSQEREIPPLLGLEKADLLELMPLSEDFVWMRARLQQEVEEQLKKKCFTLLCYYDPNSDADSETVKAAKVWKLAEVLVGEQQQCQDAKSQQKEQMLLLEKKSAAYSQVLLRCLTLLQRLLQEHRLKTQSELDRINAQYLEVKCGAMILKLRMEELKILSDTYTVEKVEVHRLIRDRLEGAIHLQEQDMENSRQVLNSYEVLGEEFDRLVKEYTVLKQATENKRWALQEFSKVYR
# UniProt Q9H1B7, whole entry: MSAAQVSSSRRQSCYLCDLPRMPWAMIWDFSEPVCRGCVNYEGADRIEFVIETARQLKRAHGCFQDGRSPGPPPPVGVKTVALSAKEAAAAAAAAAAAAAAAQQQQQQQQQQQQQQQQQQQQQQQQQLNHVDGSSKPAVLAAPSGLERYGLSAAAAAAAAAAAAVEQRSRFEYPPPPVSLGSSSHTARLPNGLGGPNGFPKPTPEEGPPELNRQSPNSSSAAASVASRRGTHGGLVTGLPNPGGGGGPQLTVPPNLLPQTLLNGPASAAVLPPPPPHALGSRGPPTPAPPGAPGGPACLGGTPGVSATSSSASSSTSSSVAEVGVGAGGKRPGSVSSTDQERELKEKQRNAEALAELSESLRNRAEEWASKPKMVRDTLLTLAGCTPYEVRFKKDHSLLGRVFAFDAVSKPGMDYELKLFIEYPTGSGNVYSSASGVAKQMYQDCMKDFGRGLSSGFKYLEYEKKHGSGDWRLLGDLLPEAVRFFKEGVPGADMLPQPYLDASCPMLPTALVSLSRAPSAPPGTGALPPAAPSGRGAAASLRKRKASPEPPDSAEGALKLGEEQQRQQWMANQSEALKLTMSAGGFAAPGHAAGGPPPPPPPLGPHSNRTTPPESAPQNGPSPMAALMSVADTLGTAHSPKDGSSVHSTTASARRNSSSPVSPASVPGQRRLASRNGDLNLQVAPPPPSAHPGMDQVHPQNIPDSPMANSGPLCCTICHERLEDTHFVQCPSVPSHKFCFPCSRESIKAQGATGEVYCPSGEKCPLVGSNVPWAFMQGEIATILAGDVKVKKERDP
# UniProt Q9H1K1: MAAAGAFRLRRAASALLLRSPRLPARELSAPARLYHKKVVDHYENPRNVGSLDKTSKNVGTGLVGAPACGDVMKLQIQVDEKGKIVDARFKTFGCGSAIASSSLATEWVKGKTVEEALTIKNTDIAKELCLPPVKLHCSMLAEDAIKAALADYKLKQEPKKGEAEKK
# UniProt Q9HA92: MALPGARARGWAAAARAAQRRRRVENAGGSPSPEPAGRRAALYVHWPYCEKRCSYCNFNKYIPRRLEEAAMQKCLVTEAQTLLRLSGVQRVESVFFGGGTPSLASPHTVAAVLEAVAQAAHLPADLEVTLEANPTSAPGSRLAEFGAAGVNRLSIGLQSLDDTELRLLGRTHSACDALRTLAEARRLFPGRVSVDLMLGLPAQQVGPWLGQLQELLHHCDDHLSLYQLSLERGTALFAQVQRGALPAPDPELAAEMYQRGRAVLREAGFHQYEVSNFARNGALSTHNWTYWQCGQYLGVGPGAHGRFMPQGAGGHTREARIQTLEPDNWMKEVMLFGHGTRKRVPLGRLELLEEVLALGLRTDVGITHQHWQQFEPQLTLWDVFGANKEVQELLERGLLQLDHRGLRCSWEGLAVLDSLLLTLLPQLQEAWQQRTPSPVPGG
# UniProt Q9H8V3: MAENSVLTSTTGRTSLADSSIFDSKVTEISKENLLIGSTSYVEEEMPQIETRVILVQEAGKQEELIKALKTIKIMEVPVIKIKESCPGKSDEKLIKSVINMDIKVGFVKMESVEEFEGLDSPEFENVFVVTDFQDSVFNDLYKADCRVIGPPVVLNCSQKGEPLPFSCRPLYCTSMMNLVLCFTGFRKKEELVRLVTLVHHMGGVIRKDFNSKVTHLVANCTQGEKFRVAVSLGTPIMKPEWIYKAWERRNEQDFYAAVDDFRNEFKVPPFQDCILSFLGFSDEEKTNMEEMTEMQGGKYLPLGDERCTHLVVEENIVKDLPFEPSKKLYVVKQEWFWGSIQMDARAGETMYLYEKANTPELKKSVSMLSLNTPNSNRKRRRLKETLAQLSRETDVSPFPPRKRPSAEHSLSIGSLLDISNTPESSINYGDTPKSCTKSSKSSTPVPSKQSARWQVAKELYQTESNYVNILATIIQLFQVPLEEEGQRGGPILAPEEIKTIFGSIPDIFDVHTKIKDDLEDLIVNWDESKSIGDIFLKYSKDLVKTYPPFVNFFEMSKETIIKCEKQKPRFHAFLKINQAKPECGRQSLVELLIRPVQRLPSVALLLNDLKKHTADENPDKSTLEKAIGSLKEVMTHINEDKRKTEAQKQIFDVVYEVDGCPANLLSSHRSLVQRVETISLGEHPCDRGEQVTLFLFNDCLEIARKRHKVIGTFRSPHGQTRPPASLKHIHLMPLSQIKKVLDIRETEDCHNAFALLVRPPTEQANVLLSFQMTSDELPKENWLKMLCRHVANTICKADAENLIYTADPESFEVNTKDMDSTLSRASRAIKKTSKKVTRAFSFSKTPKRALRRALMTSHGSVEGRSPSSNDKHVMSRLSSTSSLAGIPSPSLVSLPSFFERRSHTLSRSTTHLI
# UniProt Q9H0C8: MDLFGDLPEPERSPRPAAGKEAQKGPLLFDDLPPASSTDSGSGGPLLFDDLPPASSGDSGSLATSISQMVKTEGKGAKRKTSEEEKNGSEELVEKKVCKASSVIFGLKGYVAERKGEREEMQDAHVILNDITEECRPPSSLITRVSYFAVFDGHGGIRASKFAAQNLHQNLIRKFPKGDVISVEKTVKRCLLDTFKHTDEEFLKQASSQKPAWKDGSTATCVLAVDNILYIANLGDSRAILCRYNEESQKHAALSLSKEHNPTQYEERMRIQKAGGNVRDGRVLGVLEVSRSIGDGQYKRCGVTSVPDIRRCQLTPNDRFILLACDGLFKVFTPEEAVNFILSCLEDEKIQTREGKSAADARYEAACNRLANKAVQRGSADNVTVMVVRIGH
# UniProt Q9H6N6: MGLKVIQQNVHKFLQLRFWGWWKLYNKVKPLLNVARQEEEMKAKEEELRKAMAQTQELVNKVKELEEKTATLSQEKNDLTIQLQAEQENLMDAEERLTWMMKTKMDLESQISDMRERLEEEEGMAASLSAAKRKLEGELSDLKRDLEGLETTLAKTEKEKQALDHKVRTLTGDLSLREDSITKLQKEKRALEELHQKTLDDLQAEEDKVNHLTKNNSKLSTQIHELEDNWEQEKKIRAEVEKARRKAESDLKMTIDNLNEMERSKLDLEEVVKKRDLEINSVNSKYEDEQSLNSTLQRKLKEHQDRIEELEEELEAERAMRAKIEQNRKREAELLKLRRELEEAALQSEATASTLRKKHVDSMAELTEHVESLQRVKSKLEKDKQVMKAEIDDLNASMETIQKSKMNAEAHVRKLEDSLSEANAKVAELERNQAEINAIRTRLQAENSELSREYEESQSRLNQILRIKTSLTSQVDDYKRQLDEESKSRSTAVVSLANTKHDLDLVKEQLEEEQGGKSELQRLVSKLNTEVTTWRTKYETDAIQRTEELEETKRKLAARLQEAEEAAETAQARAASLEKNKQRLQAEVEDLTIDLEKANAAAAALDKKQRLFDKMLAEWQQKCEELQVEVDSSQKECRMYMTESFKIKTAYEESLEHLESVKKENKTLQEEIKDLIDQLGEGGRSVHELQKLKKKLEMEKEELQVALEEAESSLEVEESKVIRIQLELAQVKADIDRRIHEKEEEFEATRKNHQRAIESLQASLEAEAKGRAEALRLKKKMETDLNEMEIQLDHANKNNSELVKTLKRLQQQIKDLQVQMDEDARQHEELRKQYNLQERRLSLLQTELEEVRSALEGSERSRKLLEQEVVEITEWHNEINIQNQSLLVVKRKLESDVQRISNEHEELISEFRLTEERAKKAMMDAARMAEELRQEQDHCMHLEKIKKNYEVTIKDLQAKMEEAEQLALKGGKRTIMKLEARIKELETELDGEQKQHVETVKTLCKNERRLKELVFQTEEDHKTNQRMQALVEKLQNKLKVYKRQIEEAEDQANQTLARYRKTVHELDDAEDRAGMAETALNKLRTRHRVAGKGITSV
# UniProt Q9H446: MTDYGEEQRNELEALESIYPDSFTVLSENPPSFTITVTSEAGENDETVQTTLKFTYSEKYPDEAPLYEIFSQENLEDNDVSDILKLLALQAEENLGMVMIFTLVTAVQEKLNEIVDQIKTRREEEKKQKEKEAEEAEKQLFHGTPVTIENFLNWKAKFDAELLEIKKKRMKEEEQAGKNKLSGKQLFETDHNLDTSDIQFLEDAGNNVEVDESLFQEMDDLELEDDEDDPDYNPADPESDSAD
# UniProt Q9H3H1: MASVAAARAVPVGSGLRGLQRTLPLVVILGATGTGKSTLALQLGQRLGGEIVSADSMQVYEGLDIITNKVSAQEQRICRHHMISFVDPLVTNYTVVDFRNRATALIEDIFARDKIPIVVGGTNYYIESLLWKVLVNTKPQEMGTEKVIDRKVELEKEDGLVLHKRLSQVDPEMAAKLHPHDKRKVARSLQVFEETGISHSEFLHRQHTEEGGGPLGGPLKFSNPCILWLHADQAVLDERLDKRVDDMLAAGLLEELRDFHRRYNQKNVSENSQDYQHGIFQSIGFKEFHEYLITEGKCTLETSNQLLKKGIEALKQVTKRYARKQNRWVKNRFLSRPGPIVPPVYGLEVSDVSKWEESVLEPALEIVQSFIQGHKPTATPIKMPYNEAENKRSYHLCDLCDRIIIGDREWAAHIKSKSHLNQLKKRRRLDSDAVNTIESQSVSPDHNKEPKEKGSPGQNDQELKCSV
# ± gives the standard deviation of the averaged measurements. This is a selection; strong and weak results do not stand in their true shares.
# Compound: Nc1ncnc2c1ncn2[C@@H]1O[C@H](COP(=O)(O)OP(=O)(O)OP(=O)(O)O)[C@@H](O)[C@H]1O [adenosine triphosphate]
# Assay: NP40-soluble protein abundance relative to vehicle (solubility fold change) (ratio); higher = more soluble protein in presence of ATP
# Procedure, shortened: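 Crude Jurkat lysate, prepared by Dounce homogenisation, was exposed to eight concentrations from 0.1 to 10 mM for 10 min at room temperature and then 3 min at 37 °C. Solubilisation used 0.8% NP40 with benzonase for 60 min at 4 °C, followed by ultracentrifugation and TMT labelling of the supernatant for LC-MS/MS. After vsn normalisation of intensities, each value is the fold change against the detergent-processed vehicle within each replicate, across three independent experiments.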
Target,NP40-soluble protein abundance (concentration: 1mM),NP40-soluble protein abundance (concentration: 2mM),NP40-soluble protein abundance (concentration: 4mM),NP40-soluble protein abundance (concentration: 6mM),NP40-soluble protein abundance (concentration: 8mM),NP40-soluble protein abundance (concentration: 10mM)
UniProt Q9H7E9 and related entries,1.01 ± 0.2,0.921 ± 0.063,0.983 ± 0.062,1.02 ± 0.1,1.02 ± 0.053,0.965 ± 0.071
UniProt Q9H2V7 and related entries,1.07 ± 0.1,1.08 ± 0.057,1.08 ± 0.094,0.993 ± 0.13,0.992 ± 0.014,1.15 ± 0.043
MIS12 (UniProt Q9H081),0.961 ± 0.17,0.897 ± 0.12,0.975 ± 0.04,0.944 ± 0.17,0.948 ± 0.13,0.845 ± 0.18
UniProt Q9H1I8 and related entries,0.935 ± 0.19,0.996 ± 0.2,1.12 ± 0.25,1.16 ± 0.28,1.21 ± 0.4,1.32 ± 0.31
UniProt Q9H2Y7 and related entries,1.03 ± 0.18,1.1 ± 0.21,1.13 ± 0.16,1.1 ± 0.23,1.1 ± 0.12,1.16 ± 0.21
CWC22 (UniProt Q9HCG8),0.926 ± 0.11,0.916 ± 0.11,0.928 ± 0.11,0.949 ± 0.11,0.932 ± 0.09,0.978 ± 0.13
GPN2 (UniProt Q9H9Y4),1.09 ± 0.051,1.15 ± 0.12,1.08 ± 0.1,1.07 ± 0.1,1.06 ± 0.067,1.05 ± 0.13
UniProt Q9HCE5,1.01 ± 0.038,0.982 ± 0.046,0.913 ± 0.012,0.927 ± 0.057,0.974 ± 0.046,0.934 ± 0.033
EGLN1 (UniProt Q9GZT9),0.973 ± 0.093,1 ± 0.032,1.02 ± 0.041,1.01 ± 0.079,0.971 ± 0.038,0.996 ± 0.042
SLC38A10 (UniProt Q9HBR0),0.987 ± 0.095,0.921 ± 0.056,0.955 ± 0.043,0.891 ± 0.049,0.813 ± 0.11,0.911 ± 0.065
CUEDC2 (UniProt Q9H467),0.926 ± 0.11,0.926 ± 0.072,0.911 ± 0.061,0.92 ± 0.087,0.868 ± 0.042,0.851 ± 0.1
NMRAL1 (UniProt Q9HBL8),0.997 ± 0.026,0.976 ± 0.034,0.944 ± 0.035,0.952 ± 0.048,0.96 ± 0.059,0.946 ± 0.029
SDF2L1 (UniProt Q9HCN8),0.937 ± 0.021,0.947 ± 0.034,0.942 ± 0.015,0.929 ± 0.022,0.948 ± 0.035,0.968 ± 0.027
UniProt Q9H8E8 and related entries,0.99 ± 0.11,0.911 ± 0.1,0.911 ± 0.085,0.922 ± 0.095,0.885 ± 0.083,0.951 ± 0.078
UniProt Q9H832 and related entries,0.927 ± 0.038,0.952 ± 0.025,0.93 ± 0.032,0.915 ± 0.018,0.899 ± 0.025,0.913 ± 0.025
UniProt Q9H7D7-2,1.04 ± 0.027,0.975 ± 0.045,0.958 ± 0.065,0.937 ± 0.13,0.99 ± 0.12,0.967 ± 0.092
ETNK1 (UniProt Q9HBU6),1.01 ± 0.12,1.02 ± 0.11,0.982 ± 0.091,0.94 ± 0.088,1 ± 0.056,0.954 ± 0.03
UniProt Q9HCJ3 and related entries,0.924 ± 0.04,0.931 ± 0.042,0.979 ± 0.038,0.85 ± 0.047,0.956 ± 0.035,0.983 ± 0.03
UniProt Q9HA38 and related entries,1.17 ± 0.049,1.25 ± 0.088,1.4 ± 0.019,1.42 ± 0.066,1.41 ± 0.047,1.45 ± 0.049
UniProt Q9H6D7 and related entries,1.04 ± 0.13,1.01 ± 0.086,1.05 ± 0.11,1.01 ± 0.11,1.09 ± 0.058,0.965 ± 0.081

Target,NP40-soluble protein abundance (concentration: 1mM),NP40-soluble protein abundance (concentration: 2mM),NP40-soluble protein abundance (concentration: 4mM),NP40-soluble protein abundance (concentration: 6mM),NP40-soluble protein abundance (concentration: 8mM),NP40-soluble protein abundance (concentration: 10mM)
UniProt Q9H1B7,0.96 ± 0.044,0.967 ± 0.051,0.947 ± 0.018,0.947 ± 0.032,0.916 ± 0.013,0.939 ± 0.019
PTPN23 (UniProt Q9H3S7),1.03 ± 0.045,1.03 ± 0.012,1.03 ± 0.014,0.981 ± 0.051,1 ± 0.026,1.01 ± 0.024
UniProt Q9H6U6 and related entries,0.975 ± 0.025,0.995 ± 0.065,1 ± 0.066,0.983 ± 0.063,0.973 ± 0.089,0.994 ± 0.061
ISCU (UniProt Q9H1K1),0.933 ± 0.054,0.927 ± 0.029,0.917 ± 0.021,0.953 ± 0.027,0.912 ± 0.02,0.887 ± 0.021
UniProt Q9H0X9 and related entries,1.05 ± 0.068,1.06 ± 0.018,1.01 ± 0.1,1.06 ± 0.04,1.02 ± 0.073,0.996 ± 0.013
CCDC134 (UniProt Q9H6E4),0.996 ± 0.059,1.01 ± 0.041,0.995 ± 0.049,0.966 ± 0.052,0.97 ± 0.049,0.929 ± 0.11
UniProt Q9H074 and related entries,0.887 ± 0.052,0.946 ± 0.083,0.927 ± 0.044,0.909 ± 0.078,0.886 ± 0.021,0.876 ± 0.073
MOV10 (UniProt Q9HCE1),1.12 ± 0.092,1.05 ± 0.018,1.08 ± 0.02,1.04 ± 0.018,1.18 ± 0.05,1.18 ± 0.087
ACTR8 (UniProt Q9H981),1.12 ± 0.038,1.15 ± 0.07,1.19 ± 0.068,1.19 ± 0.06,1.23 ± 0.096,1.25 ± 0.11
POLR3F (UniProt Q9H1D9),1.06 ± 0.053,1.03 ± 0.026,1.01 ± 0.042,0.999 ± 0.056,1.06 ± 0.04,1.02 ± 0.015
PDCL3 (UniProt Q9H2J4),0.9556 ± 0.0082,0.931 ± 0.053,0.917 ± 0.066,0.956 ± 0.07,0.963 ± 0.085,0.939 ± 0.069
RSAD1 (UniProt Q9HA92),1.2 ± 0.052,1.15 ± 0.14,1.1 ± 0.066,1.11 ± 0.069,1.05 ± 0.019,1.1 ± 0.054
UniProt Q9H9V9 and related entries,1.14 ± 0.17,1.03 ± 0.13,1.18 ± 0.11,1.04 ± 0.19,1.12 ± 0.25,1.03 ± 0.2
CHD8 (UniProt Q9HCK8),0.995 ± 0.0062,0.989 ± 0.029,0.978 ± 0.013,0.979 ± 0.027,0.9871 ± 0.0037,0.989 ± 0.033
PCIF1 (UniProt Q9H4Z3),1.01 ± 0.058,0.978 ± 0.021,0.978 ± 0.018,0.966 ± 0.018,0.963 ± 0.017,0.955 ± 0.053
PLEKHA1 (UniProt Q9HB21),0.99 ± 0.043,1 ± 0.024,1 ± 0.042,1.01 ± 0.09,0.963 ± 0.024,0.994 ± 0.019
VPS16 (UniProt Q9H269),1.04 ± 0.12,0.966 ± 0.052,1.01 ± 0.076,0.952 ± 0.094,0.999 ± 0.028,1.01 ± 0.061
UniProt Q9H8V3 and related entries,1.15 ± 0.068,1.11 ± 0.036,1.23 ± 0.081,1.19 ± 0.035,1.16 ± 0.061,1.17 ± 0.03
ILKAP (UniProt Q9H0C8),0.98 ± 0.056,0.969 ± 0.025,0.956 ± 0.026,0.956 ± 0.037,0.966 ± 0.058,0.966 ± 0.041
UPF2 (UniProt Q9HAU5),1.01 ± 0.018,1 ± 0.0075,0.988 ± 0.027,1.02 ± 0.037,0.985 ± 0.018,0.997 ± 0.033

# Given bar-delimited: entries from further up.
Target | NP40-soluble protein abundance (concentration: 1mM) | NP40-soluble protein abundance (concentration: 2mM) | NP40-soluble protein abundance (concentration: 4mM) | NP40-soluble protein abundance (concentration: 6mM) | NP40-soluble protein abundance (concentration: 8mM) | NP40-soluble protein abundance (concentration: 10mM)
UniProt Q9H0X9 and related entries | 1.05 ± 0.068 | 1.06 ± 0.018 | 1.01 ± 0.1 | 1.06 ± 0.04 | 1.02 ± 0.073 | 0.996 ± 0.013
CCDC134 (UniProt Q9H6E4) | 0.996 ± 0.059 | 1.01 ± 0.041 | 0.995 ± 0.049 | 0.966 ± 0.052 | 0.97 ± 0.049 | 0.929 ± 0.11
UniProt Q9H074 and related entries | 0.887 ± 0.052 | 0.946 ± 0.083 | 0.927 ± 0.044 | 0.909 ± 0.078 | 0.886 ± 0.021 | 0.876 ± 0.073
MOV10 (UniProt Q9HCE1) | 1.12 ± 0.092 | 1.05 ± 0.018 | 1.08 ± 0.02 | 1.04 ± 0.018 | 1.18 ± 0.05 | 1.18 ± 0.087

# Carrying on:

Target,NP40-soluble protein abundance (concentration: 1mM),NP40-soluble protein abundance (concentration: 2mM),NP40-soluble protein abundance (concentration: 4mM),NP40-soluble protein abundance (concentration: 6mM),NP40-soluble protein abundance (concentration: 8mM),NP40-soluble protein abundance (concentration: 10mM)
PELI2 (UniProt Q9HAT8),0.98 ± 0.065,0.988 ± 0.056,1.01 ± 0.044,0.971 ± 0.043,0.988 ± 0.078,0.994 ± 0.045
UniProt Q9C0G0 and related entries,1.06 ± 0.13,0.954 ± 0.15,1.02 ± 0.089,0.955 ± 0.11,0.916 ± 0.062,0.962 ± 0.13
UniProt Q9H0V9 and related entries,1.02 ± 0.16,1 ± 0.11,0.992 ± 0.11,0.92 ± 0.17,1.01 ± 0.13,0.977 ± 0.076
UniProt Q9H8M2 and related entries,1.16 ± 0.24,1.12 ± 0.32,1.27 ± 0.36,1.25 ± 0.33,1.28 ± 0.41,1.39 ± 0.45
UniProt Q9H5V9 and related entries,0.954 ± 0.017,0.974 ± 0.0078,0.96 ± 0.03,1.05 ± 0.013,1 ± 0.025,1.05 ± 0.013
MYH16 (UniProt Q9H6N6),0.947 ± 0.079,0.927 ± 0.071,0.889 ± 0.07,0.995 ± 0.061,0.879 ± 0.023,0.939 ± 0.066
EHD1 (UniProt Q9H4M9),1.02 ± 0.077,1.01 ± 0.05,1 ± 0.083,0.954 ± 0.086,1 ± 0.093,0.974 ± 0.047
DSN1 (UniProt Q9H410),0.969 ± 0.028,0.971 ± 0.03,0.94 ± 0.02,0.967 ± 0.03,0.9344 ± 0.0049,0.944 ± 0.01
UniProt Q9H446 and related entries,0.973 ± 0.052,1.01 ± 0.062,0.946 ± 0.061,1.05 ± 0.08,0.973 ± 0.068,0.956 ± 0.052
TOLLIP (UniProt Q9H0E2),0.954 ± 0.018,0.968 ± 0.016,0.947 ± 0.015,0.979 ± 0.014,0.924 ± 0.055,0.935 ± 0.036
UniProt Q9HBE1 and related entries,1.05 ± 0.034,1.02 ± 0.055,1.1 ± 0.042,1.13 ± 0.08,1.09 ± 0.044,1.11 ± 0.02
UniProt Q9H165 and related entries,0.943 ± 0.023,1.23 ± 0.12,1.19 ± 0.16,1.25 ± 0.048,1.25 ± 0.048,1.2 ± 0.081
DEF6 (UniProt Q9H4E7),0.961 ± 0.025,0.95 ± 0.011,0.95 ± 0.028,0.943 ± 0.013,0.938 ± 0.036,0.922 ± 0.026
PARL (UniProt Q9H300),0.822 ± 0.12,0.924 ± 0.13,0.885 ± 0.061,0.724 ± 0.035,0.926 ± 0.09,1.01 ± 0.16
UniProt Q9NP50,0.93 ± 0.022,0.96 ± 0.073,0.95 ± 0.035,1 ± 0.1,0.964 ± 0.05,1.03 ± 0.065
UniProt Q9H3H1 and related entries,1.03 ± 0.031,1.06 ± 0.05,1.01 ± 0.045,1.02 ± 0.056,1.04 ± 0.06,0.988 ± 0.032
UniProt Q9H6R6 and related entries,0.952 ± 0.099,0.975 ± 0.1,1.1 ± 0.069,0.957 ± 0.18,0.973 ± 0.063,0.978 ± 0.076
UniProt Q9GZR5,0.959 ± 0.064,0.93 ± 0.026,0.91 ± 0.022,0.976 ± 0.079,0.911 ± 0.03,0.942 ± 0.014
UniProt Q9H0W8,0.989 ± 0.13,1.02 ± 0.06,1.01 ± 0.05,1 ± 0.085,0.945 ± 0.059,0.95 ± 0.036
L2HGDH (UniProt Q9H9P8),1.09 ± 0.058,1.1 ± 0.098,1.08 ± 0.072,1.09 ± 0.069,1.07 ± 0.068,1.09 ± 0.064
